Laboratory results: article PMC6073727

Molecular target: T1, JAZ9 fused to the hemagglutinin (HA) tag (Arabidopsis) (UniProt Q8W4J8)
T1 sequence: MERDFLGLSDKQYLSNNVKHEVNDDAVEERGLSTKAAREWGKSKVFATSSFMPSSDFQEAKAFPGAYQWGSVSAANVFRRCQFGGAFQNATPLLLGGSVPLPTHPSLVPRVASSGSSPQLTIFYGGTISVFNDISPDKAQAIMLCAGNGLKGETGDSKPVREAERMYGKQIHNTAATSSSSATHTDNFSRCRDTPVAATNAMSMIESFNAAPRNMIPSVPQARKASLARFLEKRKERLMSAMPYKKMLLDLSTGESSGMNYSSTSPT
Test: co-IP; semi-in vivo: 20 µg purified His-NOG1-2 from E. coli added to 1 mg total protein of HA-JAZ9 plants (or Col-0), overnight at 4 °C, then anti-HA agarose 3 h at 4 °C; blot with anti-GTPBP4 and anti-HA; only the binder purified

In the case of “6x-histidine (His)-tagged NOG1-2 protein (Arabidopsis)”, the binding is reported as “binds”.

These are yes or no findings as the source states them, for the method shown. Binding seen in cells or lysates may run through a third protein. Binding calls can cover weak binding; strength is not graded here. Sequences can lack the tags named with a protein.
